Reference: PubChem BioAssay AID2551 (National Center for Advancing Translational Sciences (NCATS), 2010)
Values joined by “and” are separate entries in the source; they are usually repeats but may differ in a detail not shown here. Equal values may be shown once. In all, about 310,000 compounds went through this assay and about 17,000 (5.5%) were called active. Inconclusive results, whose numbers are uncertain, are shown with a selection of clear calls. Calls come from the whole dose curve; as a rule, active = well fitted inhibition curve with a large enough effect; inconclusive = small, poorly fitted or top-dose-only effect, or effect the other way; inactive = no such curve, though single readings can be large or run the other way. Where the call is inconclusive, the potency comes from a doubtful curve fit.

The chains behind the UniProt entries cited, without tags or fusion partners. Where a name states a change or a piece, a line headed by the entry shows the natural chain unless it says otherwise.
UniProt P51450: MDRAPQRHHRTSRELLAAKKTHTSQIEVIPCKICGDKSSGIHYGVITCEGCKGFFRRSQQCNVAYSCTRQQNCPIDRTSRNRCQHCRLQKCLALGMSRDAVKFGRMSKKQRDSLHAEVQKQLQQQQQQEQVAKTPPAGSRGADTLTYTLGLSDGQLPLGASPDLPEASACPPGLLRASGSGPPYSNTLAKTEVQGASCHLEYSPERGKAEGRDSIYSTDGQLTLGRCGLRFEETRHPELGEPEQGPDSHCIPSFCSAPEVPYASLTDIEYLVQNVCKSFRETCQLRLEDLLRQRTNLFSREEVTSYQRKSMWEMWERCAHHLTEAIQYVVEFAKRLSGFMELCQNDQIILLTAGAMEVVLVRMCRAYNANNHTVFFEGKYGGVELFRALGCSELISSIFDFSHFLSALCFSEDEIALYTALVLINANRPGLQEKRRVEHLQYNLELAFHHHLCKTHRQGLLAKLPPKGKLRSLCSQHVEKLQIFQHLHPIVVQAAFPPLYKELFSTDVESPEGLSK

biological target: Nuclear receptor ROR-gamma (Mus musculus) (UniProt P51450); assay: qHTS for inhibitors of ROR gamma transcriptional activity; settings: Drosophila S2 Gal4-RORgamma UAS-luciferase reporter, 20 h; activity change, negative = inhibition: at 53.6 µM (top of the series); note: nearly all actives have a fitted effect of over 60% in size
How it was run: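 Stably transfected Drosophila Schneider cells are the test system, with ROR gamma fused to Gal4 and luciferase under UAS control; luminescence is read after 20 hr of 700 uM copper sulfate induction at ambient temperature.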
% is set by controls: 0 for no effect and ±100 for the full control effect; potency is the fitted concentration of half-maximal effect.

SMILES	activity change, negative = inhibition	Potency
Fc1ccc(Nc2ccnc(C(F)(F)F)c2)cc1	inactive: 5.61%	–
CC(C)CN1C(=O)NC(NC(=O)c2ccco2)(C(F)(F)F)C1=O (centres undefined)	inactive: 0.601% [at 10 µM]	–
CC(C)(C)c1ccccc1NC(=O)c1ccco1	inactive: -0.359%	–
COc1ccc(C(=O)CSc2nnc(CCc3ccccc3)n2-c2ccccc2)cc1	–	active: 15.8 µM
O=C(CN1CCOCC1)N/N=C/c1c(O)ccc2ccccc12	–	inconclusive: 0.794 µM [inhibitor, single point]
CCOC(=O)c1cccc(NC(=O)C2CCCN(S(=O)(=O)c3c(C)n[nH]c3C)C2)c1 (centres undefined)	–	inconclusive: 20 µM [activator, single point]
CC1CCN(C(=O)CCC(=O)Nc2nnc(C(F)(F)F)s2)CC1	–	inconclusive: 11.2 µM [activator, single point]
Cc1cc(C)c2c(N)c(C(=O)Nc3nccs3)sc2n1	–	inconclusive: 15.8 µM [inhibitor, single point]
C=CCOC(=O)C1=C(C)NC(C)=C(C(=O)OCC=C)C1c1ccc(C)o1	–	inconclusive: 14.1 µM [activator, single point]
Cc1csc(NC(=O)c2cn3ccccc3n2)n1	–	active: 5.01 µM
CC(C)(Oc1ccc(Cl)cc1)C(=O)OCn1nnc2ccccc2c1=O	–	inconclusive: 22.4 µM [inhibitor, partial curve, poor fit]
CC(C)Cn1c(N)c(C(=O)COC(=O)c2cc(C(F)(F)F)nc3ccccc23)c(=O)n(C)c1=O	–	inconclusive: 15.8 µM [activator, partial curve] and inconclusive: 14.1 µM [activator, single point]
CCOC(=O)C1=C(C)N(c2ccccc2)C(=O)/C1=C\c1cccs1	inactive: 3.52%	–
CCOc1cccc2sc(NN)nc12	–	inconclusive: 22.4 µM [inhibitor, single point]
CC(=O)c1cnc2nc(SCc3ccc(Cl)cc3)nn2c1C	–	inconclusive: 25.1 µM [activator, single point]
O=C1/C(=C\c2cccnc2)CCc2ccccc21	–	inconclusive: 31.6 µM [inhibitor, single point]
Cc1ccc(C2C(C(=O)c3cccs3)=C(O)C(=O)N2c2nnc(C)s2)cc1 (centres undefined)	–	inconclusive: 0.355 µM [activator, full curve]
CC(C)n1cc(CN2CCC(n3nccc3NC(=O)CCCc3ccccc3)CC2)cn1	inactive: 0%	–
Cc1ccc(Nc2nc(C)c(CCC(C)C)c(=O)[nH]2)cc1	inactive: 25.6%	–
Cc1ccc2cc(/C=N/NC(=O)c3ccccc3O)c(Cl)nc2c1	–	active: 2.82 µM
O=C(N[C@@H](Cc1c[nH]c2ccccc12)C(=O)O)c1ccc(Cl)cc1	inactive: 11.5%	–
COc1cc(C(=O)Nc2nc(-c3ccc(Cl)cc3)c(C)s2)ccc1OCC(=O)Nc1ccc(F)cc1	–	inconclusive: 35.5 µM [inhibitor, single point]

SMILES	activity change, negative = inhibition	Potency
COc1cccc([C@@H]2Oc3ccc(Br)cc3C(=O)[C@H]2OC(=O)NCc2ccco2)c1	–	inconclusive: 31.6 µM [inhibitor, single point]
COc1ccc(Nc2oc(COc3ccc(OC)cc3)nc2C#N)cc1	–	inconclusive: 0.562 µM [activator, single point]
Cc1ccc(NC(=O)c2ccccc2O)cc1	–	inconclusive: 17.8 µM [activator, partial curve]
Cc1ccc2nc3c(cc(C(=O)NCc4cccnc4)c(=N)n3C(C)C)c(=O)n2c1	inactive: -1.63%	–
COc1ccc(Nc2nc(N)nc(CN3CCC(Cc4ccccc4)CC3)n2)cc1	–	active: 11.2 µM
CC(=O)N1CCCc2cc(S(=O)(=O)N3CCCC(C(=O)N4CCN(c5ccccc5)CC4)C3)ccc21 (centres undefined)	–	inconclusive: 4.47 µM [activator, single point]
CCCCN(C)CCCNC(=O)c1cc(-c2cccs2)nc2ccccc12	inactive: -15.9%	–
COc1cc(/C=N/n2cnnc2)ccc1OC(=O)c1ccncc1	–	inconclusive: 17.8 µM [inhibitor, single point]
COc1ccc(CNC(=O)c2cc3cc(OC)ccc3oc2=O)cc1	–	inconclusive: 35.5 µM [inhibitor, single point]
COC(=O)c1cc(Cl)c(NC(=O)c2ccc(C(C)(C)C)cc2)cc1OC	–	inconclusive: 8.91 µM [activator, partial curve, poor fit]
CCC(=O)N1CCN(c2ccc(NC(=S)NC(=O)c3cccc([N+](=O)[O-])c3)cc2)CC1	–	inconclusive: 2.82 µM [activator, partial curve]
O=C(CCl)N(C1CCCC1)C1CCS(=O)(=O)C1 (centres undefined)	–	inconclusive: 35.5 µM [inhibitor, single point]
O=C(CC(Cc1ccccc1)c1ccco1)NCc1ccco1 (centres undefined)	–	inconclusive: 20 µM [activator, single point]
Nc1nc(SCC(=O)Nc2ccc(Br)cc2F)n[nH]1	inactive: -6.85%	–
Cc1ccc(-n2ncc3c(Nc4cccc(C(=O)O)c4)ncnc32)cc1	–	inconclusive: 12.6 µM [activator, partial curve, poor fit]
C=CCn1c(C(C)NC(=O)c2ccccc2C)n[nH]c1=S (centres undefined)	–	inconclusive: 15.8 µM [inhibitor, partial curve]
COc1cnc(-c2ccccn2)nc1Sc1cccc(Cl)c1	–	active: 2 µM
CCOC(=O)c1ccc(N=c2sc(C(=O)OC)cc(=O)n2Cc2ccc3c(c2)OCO3)cc1	–	inconclusive: 31.6 µM [activator, single point]
Cc1cc(C)nc(NC(=O)/C=C/c2ccc(Cl)cc2)n1	–	inconclusive: 25.1 µM [activator, single point]
Cc1cc(C)nc(Sc2ncnc3sc4c(c23)CCC4)n1	–	inconclusive: 15.8 µM [inhibitor, single point]
COc1ccc(-n2c(=S)[nH]c(=O)c3cccnc32)cc1	–	inconclusive: 20 µM [inhibitor, single point]
O=C(Cc1cc(C(=O)O)c2ccccc2n1)Nc1ccccc1	–	inconclusive: 35.5 µM [inhibitor, single point]

A stretch taken from the entries so far:
SMILES	activity change, negative = inhibition	Potency
CC(=O)N1CCCc2cc(S(=O)(=O)N3CCCC(C(=O)N4CCN(c5ccccc5)CC4)C3)ccc21 (centres undefined)	–	inconclusive: 4.47 µM [activator, single point]
CCCCN(C)CCCNC(=O)c1cc(-c2cccs2)nc2ccccc12	inactive: -15.9%	–
